Record: PubChem BioAssay AID1259308 (NCATS, 2017)
This is a random part of about 59,000 deposited reagents. About 1,510 of all reagents (2.6%) count as active. 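Calls use total luciferase alone and ignore viability, so some active siRNAs may act by altering cell number.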 Reagents against one gene are numbered here. Not all columns of the deposit are shown.

Purpose: 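Knock-downs that increase output of a recombinant reporter protein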 (primary screen)
Cells: human HEK293 embryonic kidney cells stably expressing firefly luciferase (HEK-CMV-Luc2-Hygro)
Reagent: single siRNA against human genes, 0.8 pmol siRNA per well
Time to read-out: 72 h
Read-out: 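Reporter luminescence and viable-cell signal on separate replicate plates, given as percent of non-targeting control and median/MAD z-scores, plus per-cell luciferase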
Reading the numbers: total luciferase, z-score and total luciferase, % of control: higher = more reporter protein produced
Hit rule: 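An siRNA counts as active if its total luciferase robust z-score exceeds 3; genes with two or more such siRNAs out of three were retested with fresh siRNAs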
Meaning of the calls: active = raised luciferase; inactive = no rise

{"gene symbol": "C1GALT1", "reagent no.": 1, "total luciferase, z-score": 0.487, "total luciferase, % of control": 91.6, "call": "inactive"}
{"gene symbol": "C1GALT1", "reagent no.": 2, "total luciferase, z-score": -0.747, "total luciferase, % of control": 67, "call": "inactive"}
{"gene symbol": "C1GALT1", "reagent no.": 3, "total luciferase, z-score": -1.45, "total luciferase, % of control": 53.1, "call": "inactive"}
{"gene symbol": "PAK6-AS1 (PAK6 antisense RNA 1)", "reagent no.": 1, "total luciferase, z-score": 1.78, "total luciferase, % of control": 117, "call": "inactive"}
{"gene symbol": "PAK6-AS1 (PAK6 antisense RNA 1)", "reagent no.": 2, "total luciferase, z-score": -0.989, "total luciferase, % of control": 62.2, "call": "inactive"}
{"gene symbol": "PAK6-AS1 (PAK6 antisense RNA 1)", "reagent no.": 3, "total luciferase, z-score": -0.277, "total luciferase, % of control": 76.4, "call": "inactive"}
{"gene symbol": "SLC16A13", "reagent no.": 1, "total luciferase, z-score": -0.453, "total luciferase, % of control": 72.9, "call": "inactive"}
{"gene symbol": "SLC16A13", "reagent no.": 2, "total luciferase, z-score": -0.377, "total luciferase, % of control": 74.4, "call": "inactive"}
{"gene symbol": "SLC16A13", "reagent no.": 3, "total luciferase, z-score": -0.33, "total luciferase, % of control": 75.3, "call": "inactive"}

Part of the list above, reduced to “total luciferase, % of control”:
C1GALT1 #1: 91.6
C1GALT1 #2: 67
C1GALT1 #3: 53.1

Next results follow.
{"gene symbol": "BID (BH3 interacting domain death agonist)", "reagent no.": 1, "total luciferase, z-score": -1.86, "total luciferase, % of control": 45, "call": "inactive"}
{"gene symbol": "BID (BH3 interacting domain death agonist)", "reagent no.": 2, "total luciferase, z-score": 0.92, "total luciferase, % of control": 100, "call": "inactive"}
{"gene symbol": "BID (BH3 interacting domain death agonist)", "reagent no.": 3, "total luciferase, z-score": 1.58, "total luciferase, % of control": 113, "call": "inactive"}
{"gene symbol": "DRGX (dorsal root ganglia homeobox)", "reagent no.": 1, "total luciferase, z-score": -1.14, "total luciferase, % of control": 59.3, "call": "inactive"}
{"gene symbol": "DRGX (dorsal root ganglia homeobox)", "reagent no.": 2, "total luciferase, z-score": -0.168, "total luciferase, % of control": 78.6, "call": "inactive"}
{"gene symbol": "DRGX (dorsal root ganglia homeobox)", "reagent no.": 3, "total luciferase, z-score": -0.585, "total luciferase, % of control": 70.3, "call": "inactive"}
{"gene symbol": "PSMB9 (proteasome 20S subunit beta 9)", "reagent no.": 1, "total luciferase, z-score": -0.414, "total luciferase, % of control": 73.7, "call": "inactive"}
{"gene symbol": "PSMB9 (proteasome 20S subunit beta 9)", "reagent no.": 2, "total luciferase, z-score": -2.15, "total luciferase, % of control": 39.1, "call": "inactive"}
{"gene symbol": "PSMB9 (proteasome 20S subunit beta 9)", "reagent no.": 3, "total luciferase, z-score": -0.348, "total luciferase, % of control": 75, "call": "inactive"}
{"gene symbol": "CDO1 (cysteine dioxygenase type 1)", "reagent no.": 1, "total luciferase, z-score": -0.515, "total luciferase, % of control": 71.6, "call": "inactive"}
{"gene symbol": "CDO1 (cysteine dioxygenase type 1)", "reagent no.": 2, "total luciferase, z-score": 0.623, "total luciferase, % of control": 94.3, "call": "inactive"}
{"gene symbol": "CDO1 (cysteine dioxygenase type 1)", "reagent no.": 3, "total luciferase, z-score": -0.304, "total luciferase, % of control": 75.8, "call": "inactive"}
